Results on 9 molecules are retold here after patent US20200277374A1 (Alector, published 2020).

Amino acid sequences for entries named in this document (tags omitted). A change or cut given only in a name is not applied to a line headed by its entry.
UniProt Q9Y286: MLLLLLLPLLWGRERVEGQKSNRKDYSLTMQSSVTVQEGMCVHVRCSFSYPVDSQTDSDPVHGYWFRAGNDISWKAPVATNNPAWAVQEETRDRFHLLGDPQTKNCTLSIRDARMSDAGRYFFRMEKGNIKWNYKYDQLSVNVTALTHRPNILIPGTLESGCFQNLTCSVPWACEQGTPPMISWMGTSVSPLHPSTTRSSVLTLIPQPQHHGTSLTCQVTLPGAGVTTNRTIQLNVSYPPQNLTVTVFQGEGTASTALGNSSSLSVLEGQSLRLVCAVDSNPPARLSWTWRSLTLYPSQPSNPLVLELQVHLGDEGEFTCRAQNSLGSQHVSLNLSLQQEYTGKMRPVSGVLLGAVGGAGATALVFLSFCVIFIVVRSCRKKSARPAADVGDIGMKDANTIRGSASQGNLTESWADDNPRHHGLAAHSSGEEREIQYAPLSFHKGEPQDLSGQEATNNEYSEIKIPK

Positions count from the first letter of the chain named. Results are given in words; binding and its absence hold for the method and conditions named. Some entries that bind do so weakly or less than the wild type.

Assay [1] addresses Histidine-tagged human Siglec-7 (NovoProtein) (human) (UniProt Q9Y286). Description: SPR (Biacore), antibody captured on anti-mouse IgG, Siglec-7-his as analyte. A general note: In SPR one partner is held on a chip, and binding of the other changes the refractive index at the surface.
Assay [2] shares this target. Description: SPR (Biacore), antibody captured on anti-mouse IgG, Siglec-7-his as analyte [Cont.].
In assay [3] the target is human Siglec-7 expressed on human cells (primary monocytes, dendritic cells, macrophages, NK cells, microglia, U937 cells, human cells of humanized mice) (human) (UniProt Q9Y286). Description: FACS on human primary dendritic cells, APC detection [Cont.].
Assay [4] shares this target. Nature of the assay: FACS on human primary cells.
Assay [5] has the same target. Description: 12-point titration, FACS on primary human dendritic cells, 4 C, goat anti-mouse APC.
For assay [6] the target is unchanged. Description: FACS titration on primary human dendritic cells.

B1: anti-Siglec-7 antibody 1A12 (antibody, V domains shown)
VH: QVQLQQSGSELRSPGSSVKLSCKDFDSEVFPITYMNWVRQKPGHGFEWIGDILPSIGRTMYGEKFEDKATLDADTVSNTAYLELNSLTSEDSAIYYCARSEGYLLAYWGQGTLVTVSA
VL: DVZMTQTPLSLPVSLGDQASISCRSSQSLVHSTGNTYLHWYLQKPGQSPKLLIYKVSNRFSGVPDRFSGSGAGTDFTLKISRVEAEDLGVYFCSQNTHVPYTFGGGTKLEIK
notes: also called 1Al2
Turning to B1, the binding result in assay [1] is given as “binds”.

B2: anti-Siglec-7 antibody 3E11 (antibody, V domains shown)
VH: QVQLQQSGAELARPGASVKLSCKASGYIFTDYGITWVKQRTGQGLEWIGEISPRSGETYFNENYRVKATLTADKSSSTAYMQLFSLTSEDSAVYFCAREGNPFTYWGHGTLVTVSA
VL: B1 VL with S61C
notes: Variable domains assembled from FR and CDR entries
Consider B2, for which the binding entry in assay [1] is on record as “binds”.

B3: anti-Siglec-7 antibody 2G4 (antibody, V domains shown)
VH: B1 VH
VL: DIQMTQSLSYLSVSLGGRVTITCKASDHINNWLAWYQQKPGNAPRLLISGATSLETGFPSRFSGSGSGKDYTLSITSLQTEDVATYYCHQYWNTPYTFGGGTRLEIK
notes: as for B2
For B3, in assay [1], the binding entry is reported as “binds”.

B4: anti-Siglec-7 antibody 7F12 (antibody, V domains shown)
VH: B1 VH
VL: B1 VL with Z3L
notes: as for B2
For the molecule B4, the binding entry in assay [2] is given as “binds”.

B5: anti-Siglec-7 antibody 4A1 (antibody, V domains shown)
VH: B1 VH
VL: B1 VL with Z3V, T36I, S61Z, A72S
notes: as for B2
Take B5: in assay [1], the binding entry was “binds”.

B6: anti-Siglec-7 antibody 10B5 (antibody, V domains shown)
VH: QVHLQQSGPELVKPGASVKISCKASGYAFTNCWMNWVRQRPGKGLDWIGRIFPGNGHTNYSGKFKDKATLTEDKSSSTAYMQLSSLTSEDSAVYFCARDYSDYYFDYWGQGTTLTVSS
VL: DVQMTQTTSSLSASLGDRVTISCRASQDINTYLNWYQQKPDGTVKLLIYYTSRLHSGVPSRFSGSGSGTDYSLTISNLEQEDIATYFCQQGNTLPWTFGGGTKLEIK
notes: that light chain holds several Z and differs in its CDRs from S7-10B5.1 / 10B5L1; also called S7-10B5; mAb S7-10B5
Regarding B6, the binding entry in assay [3], in assay [2], in assay [4], in assay [5] and in assay [6] was “binds” in each case.

B7: anti-Siglec-7 antibody 7E11 (antibody, V domains shown)
VH: QVQLKQSGPVLVAPSQSLSITCTVSGFSLSNYGVHWVRQFPGKGLEWLGVIWAGGITNYNSVLMSRLSISKDNSKSQVFLKMNSLQTDDTAMYYCAKQGGTSFSYWGQGTLVTVSA
VL: DIQMTQSPASQSASLGESVTITCLASQTIGTWLAWYQQKPGKSPQLLIYAATSLADGVPSRFSGSGSGTKFSFKISSLQAEDFVSYYCQQLYSTPYTFGGGTKLEIK
notes: as for B2
For B7, in assay [2], the binding entry is recorded as “binds”.

B8: anti-Siglec-7 antibody 2G1 (antibody, V domains shown)
VH: EVKLVESGGTLVKPGGSLKISCAASGFTFSNYDMSWVRQNPEKRLEWVATISSGGDYTYYPDIFKGRFTISRDDAKNALYLQMSSLRSEDTALYYCARHGYGNYDWYFDVWGAGATVTVSS
VL: VLTQSPAIMSASPGEKVTMTCSANSSFIYMYWYQQKPGSSPRLLIFDTSNLASGVPIRFSGSGSGTSYSLTISRMEAEDTATYYCQQWSSSPLTFGGGTKLELK
notes: Variable domains assembled from FR and CDR entries; the printed VL FR1 looks shortened at its N-terminus; also called 2G11 (misprint in text)
In the case of B8, the binding entry in assay [1] was “binds”.

B9: anti-Siglec-7 antibody 4E3 (antibody, V domains shown)
VH: B8 VH with K3Q, T10A, A24V, T28I, D56G, I63S, F64V, D74N, A97T
VL: QIVLTQSPAILSASPGEKVTMTCSANSSFTYMYWYQQKPGSSPRLLIFDTSNLASGVPIRFSGSGSGTSYSLTISRMEAEDTATYYCQQWSSSPLTFGAGTKLELK
notes: VL FR1 there holds a Z); also called S7-4E3; mAb S7-4E3
Turning to B9, the binding entry in assay [2] is given as “binds”.
